Columns and labels:
[1] = Solution-processed OLEDs from soluble functional materials; conditions: solution-processed OLED
[2] = Vacuum-processed OLEDs with the complexes as phosphorescent emitter (efficiency, voltage, colour, lifetime); conditions: for LT80 (h) 1000 cd/m^2: orange-red, yellow and green OLEDs, time to 80% of initial luminous density 1000 cd/m^2; for Voltage (V) 1000 cd/m^2 / EQE (%) 1000 cd/m^2: vacuum-processed OLED, at 1000 cd/m^2; for EQE (%) 1000 cd/m^2: complex as emitter in EML (structure per Table 1)
[3] = device Type 1, initial luminous density 1000 cd/m^2
[4] = device Type 2, initial luminous density 1000 cd/m^2

Question: For `CC1(C)CCC(C)(C)c2c[c]([Ir]([c]3ccccc3-c3ccccn3)[c]3ccccc3-c3ccccn3)c(-c3cc4c(cn3)C(C)(C)CC4(C)C)cc21` [Ir515], which “EQE (%) 1000 cd/m^2” value ([1]; device Type 1, at 1000 cd/m^2) is on record?
Answer: 22.1%

Question: And the “Voltage (V) 1000 cd/m^2” value ([1]; device Type 1, at 1000 cd/m^2)?
Answer: 4.6 V

Question: What does the source list for `Cc1cccc(C)c1-n1c2[n+](c3cc4c(cc31)C(C)(C)CCC4(C)C)[Ir-3]13([c]4ccccc4-2)([c]2ccccc2-c2n(-c4c(C)cccc4C)c4cc5c(cc4[n+]21)C(C)(C)CCC5(C)C)[c]1ccccc1-c1n(-c2c(C)cccc2C)c2cc4c(cc2[n+]13)C(C)(C)CCC4(C)C` [Ir(LH20)3]?
Answer: EQE (%) 1000 cd/m^2 ([1]; device Type 1, at 1000 cd/m^2): 19.3%; Voltage (V) 1000 cd/m^2 ([1]; device Type 1, at 1000 cd/m^2): 4.6 V

Question: Which “EQE (%) 1000 cd/m^2” value ([1]; device Type 1, at 1000 cd/m^2) does the source give for `CC1(C)CCC(C)(C)c2cc3cc(-c4cc5c(c[c]4[Ir]([c]4cc6c(cc4-c4cc7cc8c(cc7cn4)C(C)(C)CCC8(C)C)C(C)(C)CC6(C)C)[c]4cc6c(cc4-c4cc7cc8c(cc7cn4)C(C)(C)CCC8(C)C)C(C)(C)CC6(C)C)C(C)(C)CC5(C)C)ncc3cc21` [Ir(LH34)3] here?
Answer: 19.9%

Question: And the “Voltage (V) 1000 cd/m^2” value ([1]; device Type 1, at 1000 cd/m^2)?
Answer: 3.7 V

Question: Which “EQE (%) 1000 cd/m^2” value ([1]; device Type 1, at 1000 cd/m^2) does the source give for `CC1(C)CCC(C)(C)c2cc3nc(-c4cccc[c]4[Ir]([c]4ccccc4-c4ccccn4)[c]4ccccc4-c4ccccn4)c(-c4ccccc4)nc3cc21` [Ir518] here?
Answer: 17.1%

Question: And the “Voltage (V) 1000 cd/m^2” value ([1]; device Type 1, at 1000 cd/m^2)?
Answer: 3.7 V

Question: For `Cn1c(-c2cccc[c]2[Ir]([c]2ccc(C#N)cc2-c2ccccn2)[c]2ccccc2-c2nc3cc4c(cc3n2C)C(C)(C)CCC4(C)C)nc2cc3c(cc21)C(C)(C)CCC3(C)C` [Ir546], which “EQE (%) 1000 cd/m^2” value ([1]; device Type 1, at 1000 cd/m^2) is on record?
Answer: 20.5%

Question: And the “Voltage (V) 1000 cd/m^2” value ([1]; device Type 1, at 1000 cd/m^2)?
Answer: 4.5 V

Question: With `CC1(C)CCC(C)(C)c2cc3c4[n+](ccc3cc21)[Ir-3]12([c]3cc(-c5ccccc5)ccc3-4)([c]3cc(-c4ccccc4)ccc3-c3c4cc5c(cc4cc[n+]31)C(C)(C)CCC5(C)C)[c]1cc(-c3ccccc3)ccc1-c1c3cc4c(cc3cc[n+]12)C(C)(C)CCC4(C)C` [Ir(LH28)3] as the compound, how does the “EQE (%) 1000 cd/m^2” value ([1]; device Type 1, at 1000 cd/m^2) read?
Answer: 18.8%

Question: What about the “Voltage (V) 1000 cd/m^2” value ([1]; device Type 1, at 1000 cd/m^2) of the same compound?
Answer: 3.9 V

Question: And the “LT50 (h) 1000 cd/m^2” value [1, 3]?
Answer: 150000 h

Question: What does the source list for `CC1(C)CCC(C)(C)c2cc3c(-c4ccc(-c5ccccc5)c[c]4[Ir]([c]4ccccc4-c4cc5ccccc5cn4)[c]4cc(-c5ccccc5)ccc4-c4nccc5cc6c(cc45)C(C)(C)CCC6(C)C)nccc3cc21` [Ir549]?
Answer: EQE (%) 1000 cd/m^2 ([1]; device Type 2, at 1000 cd/m^2): 19.5%; Voltage (V) 1000 cd/m^2 ([1]; device Type 2, at 1000 cd/m^2): 3.8 V

Question: For `CC1(C)CCC(C)(C)c2cc3c4[n+](ccc3cc21)[Ir-3]12([c]3cc5c(cc3-4)oc3ccccc35)([c]3cc4c(cc3-c3c5cc6c(cc5cc[n+]31)C(C)(C)CCC6(C)C)oc1ccccc14)[c]1cc3c(cc1-c1c4cc5c(cc4cc[n+]12)C(C)(C)CCC5(C)C)oc1ccccc13` [Ir(LH31)3], which “EQE (%) 1000 cd/m^2” value ([1]; device Type 1, at 1000 cd/m^2) is on record?
Answer: 19.5%

Question: And the “Voltage (V) 1000 cd/m^2” value ([1]; device Type 1, at 1000 cd/m^2)?
Answer: 3.6 V

Question: For `CC1(C)CCC(C)(C)c2c[c]([Ir]([c]3cc4c(cc3-c3cc(-c5ccccc5)ccn3)C(C)(C)C(C)(C)C4(C)C)[c]3cc4c(cc3-c3nccc5cc6c(cc35)C(C)(C)CCC6(C)C)C(C)(C)CCC4(C)C)c(-c3nccc4cc5c(cc34)C(C)(C)CCC5(C)C)cc21` [Ir551], which “EQE (%) 1000 cd/m^2” value ([1]; device Type 2, at 1000 cd/m^2) is on record?
Answer: 20.0%

Question: What about the “Voltage (V) 1000 cd/m^2” value ([1]; device Type 2, at 1000 cd/m^2) of the same compound?
Answer: 3.8 V

Question: What about the “LT50 (h) 1000 cd/m^2” value [1, 4] of the same compound?
Answer: 200000 h

Question: With `CC(C)(C)c1c[c]([Ir]([c]2cc(C(C)(C)C)ncc2-c2nccc3cc4c(cc23)C(C)(C)CCC4(C)C)[c]2cccc3ccc4cccnc4c23)c(-c2nccc3cc4c(cc23)C(C)(C)CCC4(C)C)cn1` [Ir550] as the compound, how does the “EQE (%) 1000 cd/m^2” value ([1]; device Type 2, at 1000 cd/m^2) read?
Answer: 19.0%

Question: And the “Voltage (V) 1000 cd/m^2” value ([1]; device Type 2, at 1000 cd/m^2)?
Answer: 3.9 V

Question: What about the “LT50 (h) 1000 cd/m^2” value [1, 4] of the same compound?
Answer: 170000 h

Question: With `CC1(C)CCC(C)(C)c2cc(-c3ccc(-c4ccccc4)c[c]3[Ir]([c]3cc(-c4ccccc4)ccc3-c3cc4c(cn3)C(C)(C)CCC4(C)C)[c]3cc(-c4ccccc4)ccc3-c3cc4c(cn3)C(C)(C)CCC4(C)C)ncc21` [Ir(LH38)3] as the compound, how does the “EQE (%) 1000 cd/m^2” value ([1]; device Type 1, at 1000 cd/m^2) read?
Answer: 21.6%

Question: And the “Voltage (V) 1000 cd/m^2” value ([1]; device Type 1, at 1000 cd/m^2)?
Answer: 4.6 V

Question: What does the source list for `CC1(C)CCC(C)(C)c2cc3cc(-c4cccc[c]4[Ir]([c]4cc5c(cc4-c4cc6cc7c(cc6cn4)C(C)(C)CCC7(C)C)C(C)(C)CC5(C)C)[c]4cc5c(cc4-c4cc6cc7c(cc6cn4)C(C)(C)CCC7(C)C)C(C)(C)CC5(C)C)ncc3cc21` [Ir555]?
Answer: EQE (%) 1000 cd/m^2 ([1]; device Type 2, at 1000 cd/m^2): 20.5%; Voltage (V) 1000 cd/m^2 ([1]; device Type 2, at 1000 cd/m^2): 3.8 V

Question: For `CC1(C)CCC(C)(C)c2cc(-c3cc4oc5ccccc5c4c[c]3[Ir]([c]3ccccc3-c3ccccn3)[c]3ccccc3-c3ccccn3)ncc21` [Ir528], which “EQE (%) 1000 cd/m^2” value ([1]; device Type 1, at 1000 cd/m^2) is on record?
Answer: 21.5%

Question: And the “Voltage (V) 1000 cd/m^2” value ([1]; device Type 1, at 1000 cd/m^2)?
Answer: 4.7 V

Question: For `CC1(C)CCC(C)(C)c2cc3cc(-c4cc5c(c[c]4[Ir]([c]4ccccc4-c4ccccn4)[c]4ccccc4-c4ccccn4)C(C)(C)CC5(C)C)ncc3cc21` [Ir525], which “EQE (%) 1000 cd/m^2” value ([1]; device Type 2, at 1000 cd/m^2) is on record?
Answer: 19.8%

Question: And the “Voltage (V) 1000 cd/m^2” value ([1]; device Type 2, at 1000 cd/m^2)?
Answer: 3.8 V

Question: With `CC1(C)CCC(C)(C)c2c[c]3c(cc21)-c1c2cc4c(cc2cc[n+]1[Ir-3]312([c]3cc5c(cc3-c3c6cc7c(cc6cc[n+]31)C(C)(C)CCC7(C)C)C(C)(C)CCC5(C)C)[c]1cc3c(cc1-c1c5cc6c(cc5cc[n+]12)C(C)(C)CCC6(C)C)C(C)(C)CCC3(C)C)C(C)(C)CCC4(C)C` [Ir(LH30)3] as the compound, how does the “EQE (%) 1000 cd/m^2” value ([1]; device Type 2, at 1000 cd/m^2) read?
Answer: 19.1%

Question: What about the “Voltage (V) 1000 cd/m^2” value ([1]; device Type 2, at 1000 cd/m^2) of the same compound?
Answer: 3.7 V

Question: And the “LT50 (h) 1000 cd/m^2” value [1, 4]?
Answer: 180000 h

Question: For `Cc1cc(-c2cc3c(c[c]2[Ir]([c]2ccccc2-c2ccccn2)[c]2cc4c(cc2-c2cc(C)c(-c5ccccc5)cn2)C(C)(C)CCC4(C)C)C(C)(C)CCC3(C)C)ncc1-c1ccccc1` [Ir540], which “EQE (%) 1000 cd/m^2” value ([1]; device Type 1, at 1000 cd/m^2) is on record?
Answer: 22.2%

Question: What about the “Voltage (V) 1000 cd/m^2” value ([1]; device Type 1, at 1000 cd/m^2) of the same compound?
Answer: 4.6 V

Question: What does the source list for `CC(C)n1c2[n+](c3cc4c(cc31)C(C)(C)CCC4(C)C)[Ir-3]13([c]4ccccc4-2)([c]2ccccc2-c2n(C(C)C)c4cc5c(cc4[n+]21)C(C)(C)CCC5(C)C)[c]1ccccc1-c1n(C(C)C)c2cc4c(cc2[n+]13)C(C)(C)CCC4(C)C` [Ir(LH21)3]?
Answer: EQE (%) 1000 cd/m^2 ([1]; device Type 1, at 1000 cd/m^2): 19.1%; Voltage (V) 1000 cd/m^2 ([1]; device Type 1, at 1000 cd/m^2): 4.7 V

Question: Which “EQE (%) 1000 cd/m^2” value ([1]; device Type 1, at 1000 cd/m^2) does the source give for `CC1(C)CCC(C)(C)c2cc(-c3cc4oc5ccccc5c4c[c]3[Ir]([c]3cc4c(cc3-c3cc5c(cn3)C(C)(C)CCC5(C)C)oc3ccccc34)[c]3cc4c(cc3-c3cc5c(cn3)C(C)(C)CCC5(C)C)oc3ccccc34)ncc21` [Ir(LH37)3] here?
Answer: 21.1%

Question: And the “Voltage (V) 1000 cd/m^2” value ([1]; device Type 1, at 1000 cd/m^2)?
Answer: 4.6 V

Question: What about the “LT50 (h) 1000 cd/m^2” value [1, 3] of the same compound?
Answer: 190000 h

Question: With `CC1(C)CCC(C)(C)c2c[c]3c(cc21)-c1cc2c(c[n+]1[Ir-3]314([c]3cc5c(cc3-c3cc6c(c[n+]31)C1CCC6C1)C(C)(C)CCC5(C)C)[c]1cc3c(cc1-c1cc5c(c[n+]14)C1CCC5C1)C(C)(C)CCC3(C)C)C1CCC2C1` (racemic) [Ir(LH5)3] as the compound, how does the “EQE (%) 1000 cd/m^2” value ([1]; device Type 1, at 1000 cd/m^2) read?
Answer: 22.7%

Question: What about the “Voltage (V) 1000 cd/m^2” value ([1]; device Type 1, at 1000 cd/m^2) of the same compound?
Answer: 4.7 V

Question: What about the “LT50 (h) 1000 cd/m^2” value [1, 3] of the same compound?
Answer: 220000 h

Question: With `Cc1cnc(-c2[c-]cc3c(c2)C(C)(C)CCC3(C)C)cc1C.Cc1cnc(-c2[c-]cc3c(c2)C(C)(C)CCC3(C)C)cc1C.Cc1cnc(-c2[c-]cc3c(c2)C(C)(C)CCC3(C)C)cc1C.[Ir+3]` [Ir(LH58)3] as the compound, how does the “LT80 (h) 1000 cd/m^2” value [2] read?
Answer: 23000 h

Question: What about the “Voltage (V) 1000 cd/m^2” value [2] of the same compound?
Answer: 3.2 V

Question: What about the “EQE (%) 1000 cd/m^2” value [2] of the same compound?
Answer: 23.0%

Question: Which “Voltage (V) 1000 cd/m^2” value [2] does the source give for `Cc1ccc2c(c1)cc(C)c1[n+]2[Ir-3]23([c]4cc5c(cc4-1)C(C)(C)CCC5(C)C)([c]1cc4c(cc1-c1c(C)cc5cc(C)ccc5[n+]12)C(C)(C)CCC4(C)C)[c]1cc2c(cc1-c1c(C)cc4cc(C)ccc4[n+]13)C(C)(C)CCC2(C)C` [Ir(LH10)3] here?
Answer: 3.1 V

Question: And the “EQE (%) 1000 cd/m^2” value [2]?
Answer: 18.9%

Question: What does the source list for `CC(C)(C)c1ccc2[c](c1)[Ir-3]13([c]4cc(C(C)(C)C)ccc4-c4c5cc6c(cc5cc[n+]41)C(C)(C)CCC6(C)C)([c]1cc(C(C)(C)C)ccc1-c1c4cc5c(cc4cc[n+]13)C(C)(C)CCC5(C)C)[n+]1ccc3cc4c(cc3c1-2)C(C)(C)CCC4(C)C` [Ir(LH27)3]?
Answer: LT80 (h) 1000 cd/m^2 [2]: 18000 h; Voltage (V) 1000 cd/m^2 [2]: 3.0 V; EQE (%) 1000 cd/m^2 [2]: 18.4%

— patent US11393988B2, “Metal complexes” (Merck Patent GmbH, priority 2014, dated 2022)
